From article PMC6779109, “The Glutamate Receptor-Like Protein GLR3.7 Interacts With 14-3-3ω and Participates in Salt Stress Response in Arabidopsis thaliana” (Frontiers in Plant Science, 2019) come the findings set out here.

Assay [1] addresses T1, AtGLR3.7 fused to a half of EYFP (GLR3.7-nEYFP and GLR3.7-cEYFP) (Arabidopsis thaliana) (UniProt Q9SDQ4).
T1 sequence: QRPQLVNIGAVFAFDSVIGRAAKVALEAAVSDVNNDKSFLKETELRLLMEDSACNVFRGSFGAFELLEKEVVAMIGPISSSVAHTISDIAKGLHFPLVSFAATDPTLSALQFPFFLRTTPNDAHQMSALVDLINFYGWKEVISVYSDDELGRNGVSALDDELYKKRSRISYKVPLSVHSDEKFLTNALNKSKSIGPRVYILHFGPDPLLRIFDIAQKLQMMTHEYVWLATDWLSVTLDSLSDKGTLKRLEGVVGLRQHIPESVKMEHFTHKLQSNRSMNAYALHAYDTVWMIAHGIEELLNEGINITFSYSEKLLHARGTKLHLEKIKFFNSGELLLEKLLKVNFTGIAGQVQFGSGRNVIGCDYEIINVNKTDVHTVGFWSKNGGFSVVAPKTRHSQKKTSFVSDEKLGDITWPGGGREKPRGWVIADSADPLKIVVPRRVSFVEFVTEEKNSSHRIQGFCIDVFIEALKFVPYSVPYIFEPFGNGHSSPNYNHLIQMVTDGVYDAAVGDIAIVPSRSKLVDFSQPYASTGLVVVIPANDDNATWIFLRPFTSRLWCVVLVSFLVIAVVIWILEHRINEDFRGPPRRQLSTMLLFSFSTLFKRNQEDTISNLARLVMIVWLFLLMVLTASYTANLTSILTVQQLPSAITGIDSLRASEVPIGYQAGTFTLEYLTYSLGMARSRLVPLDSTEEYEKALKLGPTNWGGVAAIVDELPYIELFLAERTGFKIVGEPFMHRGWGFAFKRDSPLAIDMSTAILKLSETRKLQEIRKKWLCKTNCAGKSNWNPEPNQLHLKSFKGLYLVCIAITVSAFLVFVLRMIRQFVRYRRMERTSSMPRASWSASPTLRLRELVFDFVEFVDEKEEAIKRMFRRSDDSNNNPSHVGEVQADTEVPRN
The assay is described as follows: split reporter; BiFC in Arabidopsis leaf protoplasts, halves of EYFP, both orientations, confocal microscopy 12 to 16 h after transformation.

Assay [2] concerns the target T2, GLR3.7-YFP^N (Arabidopsis thaliana) (UniProt Q9SDQ4).
T2 sequence: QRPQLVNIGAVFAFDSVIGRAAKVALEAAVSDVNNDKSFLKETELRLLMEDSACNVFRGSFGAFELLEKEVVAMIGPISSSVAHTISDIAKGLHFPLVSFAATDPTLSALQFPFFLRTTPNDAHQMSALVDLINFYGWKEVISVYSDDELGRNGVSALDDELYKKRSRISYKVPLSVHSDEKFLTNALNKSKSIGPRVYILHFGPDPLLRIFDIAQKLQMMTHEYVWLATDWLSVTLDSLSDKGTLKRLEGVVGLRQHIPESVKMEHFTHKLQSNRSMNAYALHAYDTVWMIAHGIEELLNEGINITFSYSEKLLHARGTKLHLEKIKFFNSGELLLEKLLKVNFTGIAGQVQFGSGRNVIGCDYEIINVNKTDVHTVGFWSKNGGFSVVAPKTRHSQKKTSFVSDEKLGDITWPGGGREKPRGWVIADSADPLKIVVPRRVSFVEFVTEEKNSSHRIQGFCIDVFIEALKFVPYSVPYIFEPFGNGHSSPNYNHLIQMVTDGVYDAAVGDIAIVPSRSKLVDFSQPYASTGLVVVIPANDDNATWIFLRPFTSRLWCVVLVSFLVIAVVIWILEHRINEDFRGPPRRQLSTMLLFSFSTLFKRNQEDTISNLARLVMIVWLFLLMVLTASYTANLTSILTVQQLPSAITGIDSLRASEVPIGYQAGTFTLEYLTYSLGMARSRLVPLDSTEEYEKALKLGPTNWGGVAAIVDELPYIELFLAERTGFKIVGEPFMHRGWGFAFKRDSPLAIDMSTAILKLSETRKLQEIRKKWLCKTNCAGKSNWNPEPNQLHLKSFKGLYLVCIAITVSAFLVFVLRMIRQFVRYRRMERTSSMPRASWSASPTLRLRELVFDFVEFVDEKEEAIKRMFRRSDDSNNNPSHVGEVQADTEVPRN
The assay is described as follows: split reporter; BiFC in epidermal cells of N. benthamiana, transient expression by A. tumefaciens, YFP^N and YFP^C fusions, DeltaVision Core imaging.

The target of assay [3] is T3, GLR3.7 S860A-YFP^N (Arabidopsis thaliana) (UniProt Q9SDQ4).
T3 sequence: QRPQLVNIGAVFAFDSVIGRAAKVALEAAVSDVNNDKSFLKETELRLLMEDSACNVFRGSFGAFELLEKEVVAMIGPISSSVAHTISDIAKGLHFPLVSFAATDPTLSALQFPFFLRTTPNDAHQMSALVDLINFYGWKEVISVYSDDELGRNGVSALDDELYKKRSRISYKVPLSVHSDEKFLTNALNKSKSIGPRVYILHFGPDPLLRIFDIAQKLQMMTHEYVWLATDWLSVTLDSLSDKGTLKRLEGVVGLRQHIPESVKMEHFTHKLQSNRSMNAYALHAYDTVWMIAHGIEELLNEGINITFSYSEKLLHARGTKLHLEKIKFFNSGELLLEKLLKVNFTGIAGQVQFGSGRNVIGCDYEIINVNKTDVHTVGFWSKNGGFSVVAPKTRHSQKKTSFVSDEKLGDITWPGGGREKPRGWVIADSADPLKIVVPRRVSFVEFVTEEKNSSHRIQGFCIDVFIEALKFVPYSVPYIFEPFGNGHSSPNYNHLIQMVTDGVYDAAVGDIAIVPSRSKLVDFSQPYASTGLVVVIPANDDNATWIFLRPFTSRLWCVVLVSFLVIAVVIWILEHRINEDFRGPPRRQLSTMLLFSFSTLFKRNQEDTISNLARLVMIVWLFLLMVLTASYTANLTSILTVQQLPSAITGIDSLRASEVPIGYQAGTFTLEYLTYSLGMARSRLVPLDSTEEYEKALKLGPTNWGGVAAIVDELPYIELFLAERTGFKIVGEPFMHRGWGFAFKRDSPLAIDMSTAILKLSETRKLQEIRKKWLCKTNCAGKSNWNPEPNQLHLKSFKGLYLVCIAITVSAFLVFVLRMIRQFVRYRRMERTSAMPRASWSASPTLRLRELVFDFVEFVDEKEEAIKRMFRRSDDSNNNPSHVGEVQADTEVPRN
Described as above.

Assay [4] has as its target T4, GST-GLR3.7 P1 recombinant fusion peptide (Ser-860 to Ala) (Arabidopsis thaliana).
T4 sequence: RYRRMERTSAMPRA
Nature of the assay: quartz crystal microbalance; GST fusion peptide coated on the sensor to saturation, 6His-14-3-3ω injected into PBS; AFFINIX QN μ, Kd by AQUA software; both purified.

No constants are given. Whether binding was seen depends on the method and setting. For some of these results: Binding seen in cells or lysates may run through a third protein. Some results given as binding are weak or reduced against the parent protein; the word gives no strength. Where a sequence is shown, tags or fusion partners need not be part of it.

B1: 14-3-3ω fused to a half of EYFP (14-3-3ω-cEYFP and 14-3-3ω-nEYFP) (protein, UniProt Q01525 1-259)
chain: MASGREEFVYMAKLAEQAERYEEMVEFMEKVSAAVDGDELTVEERNLLSVAYKNVIGARRASWRIISSIEQKEESRGNDDHVTAIREYRSKIETELSGICDGILKLLDSRLIPAAASGDSKVFYLKMKGDYHRYLAEFKTGQERKDAAEHTLAAYKSAQDIANAELAPTHPIRLGLALNFSVFYYEILNSPDRACNLAKQAFDEAIAELDTLGEESYKDSTLIMQLLRDNLTLWTSDMQDDAADEIKEAAAPKPTEEQQ
Turning to B1, the binding result in assay [1] is on record as “binds”.

B2: 14-3-3ω-YFP^C (protein, UniProt Q01525 1-259)
chain: MASGREEFVYMAKLAEQAERYEEMVEFMEKVSAAVDGDELTVEERNLLSVAYKNVIGARRASWRIISSIEQKEESRGNDDHVTAIREYRSKIETELSGICDGILKLLDSRLIPAAASGDSKVFYLKMKGDYHRYLAEFKTGQERKDAAEHTLAAYKSAQDIANAELAPTHPIRLGLALNFSVFYYEILNSPDRACNLAKQAFDEAIAELDTLGEESYKDSTLIMQLLRDNLTLWTSDMQDDAADEIKEAAAPKPTEEQQ
Take B2: the binding entry is given as “binds” in assay [2] and “no binding” in assay [3].

B3: 6His-14-3-3ω recombinant protein (protein, UniProt Q01525 1-259)
chain: MASGREEFVYMAKLAEQAERYEEMVEFMEKVSAAVDGDELTVEERNLLSVAYKNVIGARRASWRIISSIEQKEESRGNDDHVTAIREYRSKIETELSGICDGILKLLDSRLIPAAASGDSKVFYLKMKGDYHRYLAEFKTGQERKDAAEHTLAAYKSAQDIANAELAPTHPIRLGLALNFSVFYYEILNSPDRACNLAKQAFDEAIAELDTLGEESYKDSTLIMQLLRDNLTLWTSDMQDDAADEIKEAAAPKPTEEQQ
For the molecule B3, the binding result in assay [4] was “no binding”.
